Assay results as given in PMC5725119.
No constants are given. Whether binding was seen depends on the method and setting. Binding seen in cells or lysates may run through a third protein. Some binding calls cover weakened binding; strength is not graded here.

Protein sequences, listed by entry. Tags and fused reporters are not part of them.
UniProt Q8VIM5: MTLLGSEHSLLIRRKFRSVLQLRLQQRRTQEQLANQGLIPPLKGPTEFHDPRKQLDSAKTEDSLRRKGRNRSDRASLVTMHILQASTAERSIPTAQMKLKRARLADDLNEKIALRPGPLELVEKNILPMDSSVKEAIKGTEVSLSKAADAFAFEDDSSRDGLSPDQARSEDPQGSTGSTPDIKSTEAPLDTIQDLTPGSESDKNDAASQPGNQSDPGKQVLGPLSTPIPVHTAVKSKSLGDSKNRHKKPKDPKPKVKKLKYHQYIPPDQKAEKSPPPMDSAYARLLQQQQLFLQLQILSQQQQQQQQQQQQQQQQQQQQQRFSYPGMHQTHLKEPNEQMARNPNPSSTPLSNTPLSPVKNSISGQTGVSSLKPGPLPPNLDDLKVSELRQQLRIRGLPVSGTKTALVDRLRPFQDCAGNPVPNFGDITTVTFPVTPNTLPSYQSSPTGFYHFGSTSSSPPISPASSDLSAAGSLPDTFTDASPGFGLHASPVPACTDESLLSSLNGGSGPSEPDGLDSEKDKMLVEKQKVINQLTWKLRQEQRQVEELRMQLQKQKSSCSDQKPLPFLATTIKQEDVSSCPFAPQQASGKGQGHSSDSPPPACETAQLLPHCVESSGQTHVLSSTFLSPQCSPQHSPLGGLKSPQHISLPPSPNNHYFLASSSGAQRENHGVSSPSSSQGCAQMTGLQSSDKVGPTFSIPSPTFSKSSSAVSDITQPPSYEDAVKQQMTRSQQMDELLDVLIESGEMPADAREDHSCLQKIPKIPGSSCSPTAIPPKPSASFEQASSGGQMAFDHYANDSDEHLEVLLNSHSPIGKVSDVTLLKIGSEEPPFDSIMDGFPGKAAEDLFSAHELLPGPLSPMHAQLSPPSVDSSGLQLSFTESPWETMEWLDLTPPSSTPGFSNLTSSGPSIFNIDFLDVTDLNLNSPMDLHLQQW
UniProt P42227: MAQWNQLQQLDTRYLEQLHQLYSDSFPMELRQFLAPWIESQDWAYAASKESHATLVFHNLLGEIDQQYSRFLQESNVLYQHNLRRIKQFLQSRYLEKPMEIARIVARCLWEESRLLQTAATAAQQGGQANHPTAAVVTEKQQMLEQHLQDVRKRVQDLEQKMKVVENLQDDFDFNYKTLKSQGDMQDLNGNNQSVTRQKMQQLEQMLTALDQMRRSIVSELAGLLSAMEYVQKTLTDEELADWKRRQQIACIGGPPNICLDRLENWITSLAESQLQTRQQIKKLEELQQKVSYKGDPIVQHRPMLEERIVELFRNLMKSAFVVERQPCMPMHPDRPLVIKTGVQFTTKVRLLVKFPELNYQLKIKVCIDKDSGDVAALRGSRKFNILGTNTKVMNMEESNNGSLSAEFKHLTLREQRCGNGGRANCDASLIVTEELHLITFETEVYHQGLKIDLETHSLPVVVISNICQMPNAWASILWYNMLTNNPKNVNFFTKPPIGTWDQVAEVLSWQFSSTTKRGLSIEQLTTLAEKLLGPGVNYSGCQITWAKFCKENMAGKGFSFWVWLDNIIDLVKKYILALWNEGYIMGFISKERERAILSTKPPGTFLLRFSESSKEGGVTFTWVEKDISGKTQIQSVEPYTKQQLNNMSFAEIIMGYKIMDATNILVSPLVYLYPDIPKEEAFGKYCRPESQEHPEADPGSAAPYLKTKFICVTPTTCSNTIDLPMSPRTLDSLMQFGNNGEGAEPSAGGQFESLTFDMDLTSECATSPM

Target: myc-tagged Myocardin (full-length mouse Myocardin) (mouse) (UniProt Q8VIM5)
Test: co-IP; myc-Myocardin and flag-Stat3 cotransfected into rat cardiomyocytes; lysates precipitated with myc antibody and with flag antibody, SDS-PAGE, blots probed with myc and flag antibodies

flag-tagged Stat3 (full-length mouse Signal transducer and activator of transcription 3) (from UniProt P42227 1-770)
binding: binds
